## Primary screen of a compound library

Chains of the proteins cited; added tags and fusions are not shown.
UniProt E9BF75, entry or part of it: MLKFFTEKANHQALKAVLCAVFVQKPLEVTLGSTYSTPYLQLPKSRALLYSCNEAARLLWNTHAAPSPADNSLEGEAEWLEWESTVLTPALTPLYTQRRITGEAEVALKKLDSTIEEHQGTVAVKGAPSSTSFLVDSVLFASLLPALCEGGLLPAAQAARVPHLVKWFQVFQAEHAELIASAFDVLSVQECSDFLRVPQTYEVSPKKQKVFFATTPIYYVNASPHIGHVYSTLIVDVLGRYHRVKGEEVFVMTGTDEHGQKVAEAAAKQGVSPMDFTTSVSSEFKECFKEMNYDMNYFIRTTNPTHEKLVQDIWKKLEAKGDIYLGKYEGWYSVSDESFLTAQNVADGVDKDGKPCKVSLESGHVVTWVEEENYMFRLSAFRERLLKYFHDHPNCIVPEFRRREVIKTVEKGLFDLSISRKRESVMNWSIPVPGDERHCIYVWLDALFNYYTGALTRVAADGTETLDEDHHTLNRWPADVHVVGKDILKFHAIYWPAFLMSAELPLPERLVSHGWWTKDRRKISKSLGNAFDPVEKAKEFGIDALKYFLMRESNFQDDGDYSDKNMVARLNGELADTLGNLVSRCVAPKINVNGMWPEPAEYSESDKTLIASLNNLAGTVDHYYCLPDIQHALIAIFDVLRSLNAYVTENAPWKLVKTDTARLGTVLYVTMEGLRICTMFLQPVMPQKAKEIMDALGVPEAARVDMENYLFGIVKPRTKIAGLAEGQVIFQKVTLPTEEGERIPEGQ

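Methionyl-tRNA synthetase (putative), Leishmania donovani (UniProt E9BF75). Primary screen of methionyl-tRNA synthetase; the read-out is not stated. The test concentration is not given. The values are filed as inhibition. Of about 68,000 compounds tested this way, about 24 (0.035%) reached 50% or more in at least one test.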

Results are percentages, as filed.
The controls that fix the scale are not given in the record; negative values are as filed.
The compounds are a random part of those screened.

Cc1cnn(CC2CN(Cc3nc(C)c(C)o3)CCO2)c1 (configuration not stated) gave 1.397%. With CCc1ncc2c(n1)CN(Cc1nc3c(F)cccc3[nH]1)CC2 the screen gave 17.13%. COc1cccc(CN2CC(O)CN(C(=O)C(C)(C)C)CC2=O)c1OC (configuration not stated) read 1.918%. For Cc1cnn(CC(C)NCC(=O)NCCOc2ccccc2)c1 (configuration not stated) the result was 7.429%. For CCc1cc(O)nc(C2CCCN2C(=O)c2cc(C)no2)n1 (configuration not stated) the result was 3.846%.

For CCc1ccc(C(CNC(=O)c2c(C)noc2C)N(C)C)cc1 (configuration not stated) the result was 1.587%. For CCCC(=O)NCC1CCCN(Cc2cc(C)c(C)o2)C1 (configuration not stated) the result was 10.18%. With O=C(CN1CCc2c(ncn2C2CC2)C1)NC1CC1 the screen gave 9.722%. Result for Cc1nccn1C1CCCN(C(=O)c2ccnc(-n3ccnc3)c2)C1 (configuration not stated) was 5.128%. With Cc1cc(C)n(Cc2cccc(C(=O)N(CCC#N)CCC#N)c2)n1 the screen gave 5.59%.

Cc1cnn(CCNCc2csc(-c3cccs3)n2)c1 read 21.43%. For Cc1cc(C)c(S(=O)(=O)Nc2ccccc2CC(F)(F)F)cc1C(=O)O the result was 4.359%. For Cc1cc(CN(C)C(=O)c2ccc(F)c(C(F)(F)F)c2)no1 the result was 19.36%. With CCN1CC[C@@]2(C(=O)Nc3ccccc3)CCN(S(C)(=O)=O)CC[C@@H]12 the screen gave 12.97%. Cc1ccc(=O)n(CC(=O)N2CCCC(c3nc(C)c(C)s3)C2)n1 (configuration not stated) gave 15.78%.

For CC(C)n1cc(C(=O)NC2CCS(=O)(=O)C2)c2ccccc2c1=O (configuration not stated) the result was 11.83%. c1cnnc(N2CCCC2CNCCc2cccs2)c1 (configuration not stated) gave 16.87%. With c1ccc(OCCNCc2cccs2)nc1 the screen gave 15.63%. Result for O=C(CCOCC(F)(F)F)NS(=O)(=O)c1cccnc1 was 15.06%. Result for CN(C)CC(=O)N1C[C@@H]2CC[C@H](Oc3ccccc3Cl)[C@@H]2C1 was 11.99%.

For Fc1ccc(C2(CNC3=NCCN3)CCCC2)cc1 the result was 6.859%. Cc1cc(CN2CCN(CC(=O)NC3(C#N)CCCCC3)CC2)on1 read 0.6803%. CC(=O)NCC1CCN(Cc2nc(C3CC3)no2)CC1 gave 15.65%. CNC1CCN(C2CCN(c3ccc(-c4ccco4)cc3)CC2)CC1 gave 20.96%. O=C(NCCOCCO)[C@@]12CNC[C@@H]1CN(C1CCCC1)C2 read 10%.

With Cn1ccc(C(=O)N2CCN(c3cc(C#N)ccn3)CC2)cc1=O the screen gave 11.11%. Cc1ccn2ncc(C(=O)N3CCCC(n4ccnc4C)C3)c2n1 (configuration not stated) read 13.19%. COc1cccc(CN(C)C(C)C(=O)Nc2nc(C)c(C)s2)c1 (configuration not stated) read 4.878%. For c1coc(-c2noc(CN3CCCC3Cn3cncn3)n2)c1 (configuration not stated) the result was 11.55%. Result for Cc1ccc(N(CCC#N)C(=O)CN2CCCC2c2ccsc2)cc1 (configuration not stated) was 19.37%.

With CC(C)(CNC(=O)C(C)(C)Oc1ccc2c(c1)CCCC2=O)C(N)=O the screen gave 8.521%. With CNC(=O)CCCNc1cc(C)nc2cc(C)nn12 the screen gave 10.57%. CCCC1C=CCN1C(=O)c1cc(COc2ccc3c(c2)OCO3)[nH]n1 (configuration not stated) gave 27.94%. With CC(C)n1ccnc1CN1CCCN(C(=O)COC2CCCC2)CC1 the screen gave 16.67%. With Cc1cnn(CC2CN(Cc3nc(-c4ccoc4)no3)CCO2)c1 (configuration not stated) the screen gave 9.15%.

O=C(CCc1cscn1)NS(=O)(=O)c1ccc2c(c1)CCC2 read 11.5%. CCOC1CC2(CCN(Cc3nccn3C)CC2)C1 read 6.164%. With CCCc1nnsc1C(=O)N1CCN(CC(O)c2ccco2)CC1 (configuration not stated) the screen gave 10.07%. CC1CN(C(=O)c2ccn(C)c(=O)c2)c2ccccc2NC1=O (configuration not stated) gave 13.05%. CCS(=O)(=O)NCCNC(=O)c1cnc(-c2ccccc2)nc1 gave 10.68%.

COc1cccc(NC(=O)NC(C)(C)c2noc(C)n2)c1 gave 10.87%. Result for CC(C)c1noc(CNc2ccccc2CC(=O)N(C)C)n1 was 11.45%. With Cc1cccc(N(CCC(N)=O)CC(=O)Nc2ccccc2)c1 the screen gave 15.28%. CN1CCN(C(=O)Cc2ccc(S(=O)(=O)C(F)F)cc2)CC1 gave 10.87%. O=C(NC[C@H]1O[C@H](Cc2cc(-c3ccccn3)on2)CC[C@@H]1O)C1CC1 read 8.795%.

O=C(Cc1cccc(F)c1F)NC1COc2ccccc2C1=O (configuration not stated) read 12.78%. Result for NS(=O)(=O)CCCNC(=O)C1(c2cccc(Cl)c2)CC1 was 9.645%. With CN1CCOC[C@H]1c1nc(C(C)(C)C)c[nH]1 the screen gave 6.441%. For CN(C)CCOc1cccc(CN2CCCC3(C2)CN(C)C(=O)O3)c1 (configuration not stated) the result was 7.736%. Result for COCCN(Cc1ccoc1)C(=O)c1ccccn1 was -4.636%.

With CSc1nc(N)cc(N2C[C@@H]3CC[C@H](C2)N(CC2CC2)C3=O)n1 the screen gave 5.459%. CC(C)n1nc2c(cc1=O)CN(CC(=O)N(C)c1nccs1)CC2 gave 20.36%. CC(C)(C)C(=O)N[C@H]1C[C@@H](Cc2cc(CN3CCOCC3)on2)C1(C)C read 11.4%. With Cc1cc(C)n(CC2CCCN2C(=O)c2cn[nH]c2C)n1 (configuration not stated) the screen gave 15.56%. CCCOC1CCCN(Cc2nc(-c3ccc(F)cc3F)oc2C)C1 (configuration not stated) gave 9.487%.

For CN(CCOc1cccc(CNS(C)(=O)=O)c1)C1CCOCC1 the result was 10.87%. For Cc1cccnc1CN(C)c1ncnc2[nH]ccc12 the result was 7.581%. COCCn1ccc(=O)c(OCC(=O)Nc2ccc(OC)cc2)c1C gave 13.7%. With Cc1ccc(OC2(C(=O)O)CCN(C/C=C/c3ccco3)CC2)cc1 the screen gave 7.117%.

Once more, the final 4:

| SMILES | inhibition |
|---|---|
| `CN(CCOc1cccc(CNS(C)(=O)=O)c1)C1CCOCC1` | 10.87 |
| `Cc1cccnc1CN(C)c1ncnc2[nH]ccc12` | 7.581 |
| `COCCn1ccc(=O)c(OCC(=O)Nc2ccc(OC)cc2)c1C` | 13.7 |
| `Cc1ccc(OC2(C(=O)O)CCN(C/C=C/c3ccco3)CC2)cc1` | 7.117 |

From ChEMBL document CHEMBL3988442, “University of Dundee, Small-Polar-MMV Screening Library” (2021).